Measured values reported in patent EP0155104A2, “Free analyte assay” (priority 1984, dated 1985).

How the values were obtained:
[1] = system: bovine serum albumin; assay: Amerlex free T4 assay of euthyroid serum pool with added albumin and SSA
[2] = Amerlex free T4 assay of analbuminaemic patient serum with SSA; settings: no SSA: 7.1
[3] = system: serum binding proteins; assay: Amerlex free T4 assay of euthyroid serum pool with added oleic acid (NEFA) and SSA

SMILES: O=C(O)c1cc(S(=O)(=O)O)ccc1O [SSA, 5-sulphosalicylic acid]
- (Percentage of original value) FT4 value by kit ([1]; SSA 3x10^-3M, added albumin 0 g/l): 100%
- (Percentage of original value) FT4 value by kit ([1]; SSA 3x10^-3M, added albumin 10 g/l): 118%
- (Percentage of original value) FT4 value by kit ([1]; SSA 3x10^-3M, added albumin 20 g/l): 125%
- (Percentage of original value) FT4 value by kit ([1]; SSA 3x10^-3M, added albumin 40 g/l): 146%
- (Percentage of original value) FT4 value by kit ([1]; SSA 3x10^-3M, added albumin 80 g/l): 224%
- (Percentage of original value) FT4 value by kit ([1]; SSA 10^-3M, added albumin 0 g/l): 100%
- (Percentage of original value) FT4 value by kit ([1]; SSA 10^-3M, added albumin 10 g/l): 114%
- (Percentage of original value) FT4 value by kit ([1]; SSA 10^-3M, added albumin 20 g/l): 120%
- (Percentage of original value) FT4 value by kit ([1]; SSA 10^-3M, added albumin 40 g/l): 150%
- (Percentage of original value) FT4 value by kit ([1]; SSA 10^-3M, added albumin 80 g/l): 207%
- FT4 value ([2]; SSA 3x10^-3 M, analbuminaemic patient serum): 11.6 pmol/L
- FT4 value ([2]; SSA 5x10^-2 M, analbuminaemic patient serum (albumin 4 g/l), theoretical 11.0): 9.4 pmol/L
- FT4 value ([2]; SSA 10^-3 M, analbuminaemic patient serum): 10.4 pmol/L
- free T4 value as a percentage of value at zero oleic acid concentration ([3]; SSA 2x10^-2 M, oleic acid 0 mM/l): 100%
- free T4 value as a percentage of value at zero oleic acid concentration ([3]; SSA 2x10^-2 M, oleic acid 1.25 mM/l): 85.8%
- free T4 value as a percentage of value at zero oleic acid concentration ([3]; SSA 2x10^-2 M, oleic acid 2.5 mM/l): 75.2%
- free T4 value as a percentage of value at zero oleic acid concentration ([3]; SSA 2x10^-2 M, oleic acid 5 mM/l): 66.7%
- free T4 value as a percentage of value at zero oleic acid concentration ([3]; SSA 2x10^-2 M, oleic acid 10 mM/l): 78.0%
- free T4 value as a percentage of value at zero oleic acid concentration ([3]; SSA 2x10^-2 M, oleic acid 12.5 mM/l): 101.4%
- free T4 value as a percentage of value at zero oleic acid concentration ([3]; SSA 2x10^-2 M, oleic acid 15 mM/l): 129.1%
- free T4 value as a percentage of value at zero oleic acid concentration ([3]; SSA 2x10^-2 M, oleic acid 20 mM/l): 202.1%
- free T4 value as a percentage of value at zero oleic acid concentration ([3]; SSA 2x10^-3 M, oleic acid 0 mM/l): 100%
- free T4 value as a percentage of value at zero oleic acid concentration ([3]; SSA 2x10^-3 M, oleic acid 1.25 mM/l): 87.4%
- free T4 value as a percentage of value at zero oleic acid concentration ([3]; SSA 2x10^-3 M, oleic acid 2.5 mM/l): 83.5%
- free T4 value as a percentage of value at zero oleic acid concentration ([3]; SSA 2x10^-3 M, oleic acid 5 mM/l): 74.0%
- free T4 value as a percentage of value at zero oleic acid concentration ([3]; SSA 2x10^-3 M, oleic acid 10 mM/l): 91.3%
- free T4 value as a percentage of value at zero oleic acid concentration ([3]; SSA 2x10^-3 M, oleic acid 12.5 mM/l): 105.5%
- free T4 value as a percentage of value at zero oleic acid concentration ([3]; SSA 2x10^-3 M, oleic acid 15 mM/l): 113.4%
- free T4 value as a percentage of value at zero oleic acid concentration ([3]; SSA 2x10^-3 M, oleic acid 20 mM/l): 188.2%
- free T4 value as a percentage of value at zero oleic acid concentration ([3]; SSA 5x10^-2 M, oleic acid 0 mM/l): 100%
- free T4 value as a percentage of value at zero oleic acid concentration ([3]; SSA 5x10^-2 M, oleic acid 1.25 mM/l): 82.1%
- free T4 value as a percentage of value at zero oleic acid concentration ([3]; SSA 5x10^-2 M, oleic acid 2.5 mM/l): 74.0%
- free T4 value as a percentage of value at zero oleic acid concentration ([3]; SSA 5x10^-2 M, oleic acid 5 mM/l): 61.8%
- free T4 value as a percentage of value at zero oleic acid concentration ([3]; SSA 5x10^-2 M, oleic acid 10 mM/l): 70.0%
- free T4 value as a percentage of value at zero oleic acid concentration ([3]; SSA 5x10^-2 M, oleic acid 12.5 mM/l): 81.3%
- free T4 value as a percentage of value at zero oleic acid concentration ([3]; SSA 5x10^-2 M, oleic acid 15 mM/l): 104.1%
- free T4 value as a percentage of value at zero oleic acid concentration ([3]; SSA 5x10^-2 M, oleic acid 20 mM/l): 143.9%
- free T4 value as a percentage of value at zero oleic acid concentration ([3]; SSA 5x10^-3 M, oleic acid 0 mM/l): 100%
- free T4 value as a percentage of value at zero oleic acid concentration ([3]; SSA 5x10^-3 M, oleic acid 1.25 mM/l): 106%
- free T4 value as a percentage of value at zero oleic acid concentration ([3]; SSA 5x10^-3 M, oleic acid 2.5 mM/l): 83.2%
- free T4 value as a percentage of value at zero oleic acid concentration ([3]; SSA 5x10^-3 M, oleic acid 5 mM/l): 75.2%
- free T4 value as a percentage of value at zero oleic acid concentration ([3]; SSA 5x10^-3 M, oleic acid 10 mM/l): 92.8%
- free T4 value as a percentage of value at zero oleic acid concentration ([3]; SSA 5x10^-3 M, oleic acid 12.5 mM/l): 92.0%
- free T4 value as a percentage of value at zero oleic acid concentration ([3]; SSA 5x10^-3 M, oleic acid 15 mM/l): 101.6%
- free T4 value as a percentage of value at zero oleic acid concentration ([3]; SSA 5x10^-3 M, oleic acid 20 mM/l): 160.8%
- free T4 value as a percentage of value at zero oleic acid concentration ([3]; SSA 10^-2 M, oleic acid 0 mM/l): 100%
- free T4 value as a percentage of value at zero oleic acid concentration ([3]; SSA 10^-2 M, oleic acid 1.25 mM/l): 90.4%
- free T4 value as a percentage of value at zero oleic acid concentration ([3]; SSA 10^-2 M, oleic acid 2.5 mM/l): 90.4%
- free T4 value as a percentage of value at zero oleic acid concentration ([3]; SSA 10^-2 M, oleic acid 5 mM/l): 72.1%
- free T4 value as a percentage of value at zero oleic acid concentration ([3]; SSA 10^-2 M, oleic acid 10 mM/l): 82.4%
- free T4 value as a percentage of value at zero oleic acid concentration ([3]; SSA 10^-2 M, oleic acid 12.5 mM/l): 98.5%
- free T4 value as a percentage of value at zero oleic acid concentration ([3]; SSA 10^-2 M, oleic acid 15 mM/l): 123.5%
- free T4 value as a percentage of value at zero oleic acid concentration ([3]; SSA 10^-2 M, oleic acid 20 mM/l): 186.0%
- free T4 value as a percentage of value at zero oleic acid concentration ([3]; SSA 10^-3 M, oleic acid 0 mM/l): 100%
- free T4 value as a percentage of value at zero oleic acid concentration ([3]; SSA 10^-3 M, oleic acid 1.25 mM/l): 94.4%
- free T4 value as a percentage of value at zero oleic acid concentration ([3]; SSA 10^-3 M, oleic acid 2.5 mM/l): 86.1%
- free T4 value as a percentage of value at zero oleic acid concentration ([3]; SSA 10^-3 M, oleic acid 5 mM/l): 77.0%
- free T4 value as a percentage of value at zero oleic acid concentration ([3]; SSA 10^-3 M, oleic acid 10 mM/l): 88.1%
- free T4 value as a percentage of value at zero oleic acid concentration ([3]; SSA 10^-3 M, oleic acid 12.5 mM/l): 110%
- free T4 value as a percentage of value at zero oleic acid concentration ([3]; SSA 10^-3 M, oleic acid 15 mM/l): 118%
- free T4 value as a percentage of value at zero oleic acid concentration ([3]; SSA 10^-3 M, oleic acid 20 mM/l): 285%
